Results: the supplement of paper PMC4604168 (melanoma cell lines)
Some of the results follow. Repeats are few or missing, and single values can be far off.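 The apoptosis fraction was the count of cleaved-PARP antibody-stained nuclei relative to all DNA-stained nuclei, imaged in 1,536-well plates. Screening doses were set so most cells survived, and baseline and induced cleaved-PARP levels vary greatly across cell lines.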

Key:
Test in all cases: cleaved PARP positive nuclei fraction relative to DMSO control; melanoma cells; higher = more apoptosis
Settings in all cases: library dose: low library concentration; 72 h
COLO792 = tested on: COLO792
COLO800 = tested on: COLO800
COLO829 = tested on: COLO829
G361 = tested on: G361
IPC-298 = tested on: IPC-298
IST-MEL1 = tested on: IST-MEL1
LB2518-MEL = tested on: LB2518-MEL
LOXIMVI = tested on: LOXIMVI
MEL-HO = tested on: MEL-HO
MZ2-MEL = tested on: MZ2-MEL
MeWo = tested on: MeWo
RPMI7951 = tested on: RPMI7951
RVH-421 = tested on: RVH-421
SkMel28 = tested on: SkMel28
SkMel2 = tested on: SkMel2
SkMel30 = tested on: SkMel30
SkMel5 = tested on: SkMel5
UACC257 = tested on: UACC257
UACC62 = tested on: UACC62

| SMILES | cleaved PARP positive nuclei fraction (COLO792) [%] | cleaved PARP positive nuclei fraction (COLO800) [%] | cleaved PARP positive nuclei fraction (COLO829) [%] | cleaved PARP positive nuclei fraction (G361) [%] | cleaved PARP positive nuclei fraction (IPC-298) [%] | cleaved PARP positive nuclei fraction (IST-MEL1) [%] | cleaved PARP positive nuclei fraction (LB2518-MEL) [%] | cleaved PARP positive nuclei fraction (LOXIMVI) [%] | cleaved PARP positive nuclei fraction (MEL-HO) [%] | cleaved PARP positive nuclei fraction (MZ2-MEL) [%] | cleaved PARP positive nuclei fraction (MeWo) [%] | cleaved PARP positive nuclei fraction (RPMI7951) [%] | cleaved PARP positive nuclei fraction (RVH-421) [%] | cleaved PARP positive nuclei fraction (SkMel28) [%] | cleaved PARP positive nuclei fraction (SkMel2) [%] | cleaved PARP positive nuclei fraction (SkMel30) [%] | cleaved PARP positive nuclei fraction (SkMel5) [%] | cleaved PARP positive nuclei fraction (UACC257) [%] | cleaved PARP positive nuclei fraction (UACC62) [%] |
| --- | --- | --- | --- | --- | --- | --- | --- | --- | --- | --- | --- | --- | --- | --- | --- | --- | --- | --- | --- |
| C=CCNC1=C2C[C@@H](C)C[C@H](OC)[C@H](O)[C@@H](C)/C=C(\C)[C@H](OC(N)=O)[C@@H](OC)/C=C\C=C(/C)C(=O)NC(=CC1=O)C2=O [Tanespimycin] + CN(C)S(=O)(=O)c1ccc2c(c1)/C(=C/c1cc3c([nH]1)CCCC3)C(=O)N2 [SU6656] (first compound 0.002 µM, partner dose 0.4 µM) | 127 | 85.7 | 216 | 119 | 92.9 | 49.2 | 47.8 | 31.1 | 34.4 | 101 | 70.7 | 242 | 108 | 902 | 34.8 | 71.9 | 92.5 | 163 | 490 |
| Cn1c(Nc2ccc(C(F)(F)F)cc2)nc2cc(Oc3ccnc(-c4ncc(C(F)(F)F)[nH]4)c3)ccc21 + Cc1ccc(NC(=O)c2cccc(N(C)C)c2)cc1NC(=O)c1ccc(O)cc1 [ZM336372] (first compound 0.08 µM, partner dose 2 µM) | 193 | 108 | 194 | 226 | 179 | 77.6 | 213 | 400 | 141 | 158 | 50 | 237 | 89.7 | 99.2 | 147 | 152 | 242 | 1790 | 296 |
| CC(C)(C)c1cnc(CSc2cnc(NC(=O)C3CCNCC3)s2)o1 + O=C(Nc1cccc(Cl)c1)Nc1ncc(CCNc2ncnc3ccsc23)s1 [SNS314] (first compound 0.01 µM, partner dose 0.0008 µM) | 146 | 68.9 | 135 | 187 | 90 | 47.9 | 49.1 | 139 | 98.1 | 252 | 135 | 75.3 | 62 | 48.4 | 121 | 145 | 64.6 | 99 | 188 |
| C#Cc1cccc(Nc2ncnc3cc(OCCOC)c(OCCOC)cc23)c1 [erlotinib] + NC(=O)Nc1cc(-c2cccc(F)c2)sc1C(=O)N[C@H]1CCCNC1 [AZD7762] (first compound 0.8 µM, partner dose 0.02 µM) | 97.9 | 70 | 116 | 64.4 | 90.9 | 70.3 | 63.7 | 29.9 | 170 | 101 | 61.1 | 242 | 51.9 | 55.2 | 51.7 | 44.8 | 37 | 121 | 297 |
| Cc1ccc(NC(=O)c2cccc(N(C)C)c2)cc1NC(=O)c1ccc(O)cc1 + CO[C@@H]1[C@H](N(C)C(=O)c2ccccc2)C[C@H]2O[C@]1(C)n1c3ccccc3c3c4c(c5c6ccccc6n2c5c31)C(=O)NC4 [Midostaurin] (first compound 2 µM, partner dose 0.08 µM) | 48 | 94.9 | 90.9 | 59.3 | 123 | 47 | 75.6 | 77.4 | 41.2 | 149 | 129 | 178 | 103 | 27.3 | 120 | 71.1 | 81.8 | 220 | 81.8 |
| COCC[n+]1c2c(n(Cc3cnccn3)c1C)C(=O)c1ccccc1C2=O + O=C(O)c1ccc(-c2c[nH]c3ncc(-c4ccccc4)cc23)cc1C1CCCC1 [GSK650394] (first compound 0.0004 µM, partner dose 0.16 µM) | 92 | 38.2 | 159 | 96.1 | 205 | 931 | 124 | 170 | 144 | 444 | 60 | 59.6 | 46.6 | 186 | 108 | 39.2 | 286 | 105 | 188 |
| C=CCn1c(=O)c2cnc(Nc3ccc(N4CCN(C)CC4)cc3)nc2n1-c1cccc(C(C)(C)O)n1 + CO[C@@H]1[C@H](N(C)C(=O)c2ccccc2)C[C@H]2O[C@]1(C)n1c3ccccc3c3c4c(c5c6ccccc6n2c5c31)C(=O)NC4 [Midostaurin] (first compound 0.02 µM, partner dose 0.08 µM) | 47.5 | 202 | 116 | 76.5 | 97.7 | 219 | 111 | 34.2 | 73.2 | 96.2 | 146 | 55.8 | 25.6 | 150 | 105 | 172 | 198 | 68.8 | 102 |
| CC1(C)NC(=O)N(c2ccc([N+](=O)[O-])c(C(F)(F)F)c2)C1=O [nilutamide] + CC(C)(C)c1cnc(CSc2cnc(NC(=O)C3CCNCC3)s2)o1 [SNS-032] (first compound 1 µM, partner dose 0.01 µM) | 93 | 100 | 97.1 | 144 | 86 | 104 | 91.6 | 111 | 65.2 | 155 | 66.7 | 179 | 76.5 | 34.8 | 62.9 | 55.1 | 33.9 | 144 | 39.6 |
| CC(=O)c1c(C)c2cnc(Nc3ccc(N4CCNCC4)cn3)nc2n(C2CCCC2)c1=O [palbociclib] + CO[C@@H]1[C@H](N(C)C(=O)c2ccccc2)C[C@H]2O[C@]1(C)n1c3ccccc3c3c4c(c5c6ccccc6n2c5c31)C(=O)NC4 [Midostaurin] (first compound 0.04 µM, partner dose 0.08 µM) | 110 | 79.8 | 144 | 37.1 | 143 | 226 | 60.8 | 163 | 122 | 87.1 | 175 | 174 | 104 | 67.8 | 134 | 103 | 52.1 | 138 | 125 |
| COCC[n+]1c2c(n(Cc3cnccn3)c1C)C(=O)c1ccccc1C2=O + OCCn1cc(-c2cnc3nnn(Cc4ccc5ncccc5c4)c3n2)cn1 [PF04217903] (first compound 0.0004 µM, partner dose 1 µM) | 14 | 184 | 92.8 | 83.5 | 56.9 | 346 | 70.2 | 65.6 | 180 | 186 | 141 | 93.3 | 99.8 | 82 | 78.9 | 199 | 150 | 104 | 116 |
| CC1(C)NC(=O)N(c2ccc([N+](=O)[O-])c(C(F)(F)F)c2)C1=O [nilutamide] + NC(=O)Nc1cc(-c2cccc(F)c2)sc1C(=O)N[C@H]1CCCNC1 [AZD7762] (first compound 1 µM, partner dose 0.02 µM) | 71 | 79.5 | 81.8 | 163 | 227 | 117 | 31.2 | 70.6 | 34 | 77.7 | 51 | 143 | 48.9 | 44.1 | 46.1 | 55.8 | 39.4 | 67.3 | 62.2 |
| CO[C@@H]1[C@H](N(C)C(=O)c2ccccc2)C[C@H]2O[C@]1(C)n1c3ccccc3c3c4c(c5c6ccccc6n2c5c31)C(=O)NC4 [Midostaurin] + NC(=O)Nc1cc(-c2cccc(F)c2)sc1C(=O)N[C@H]1CCCNC1 [AZD7762] (first compound 0.08 µM, partner dose 0.02 µM) | 171 | 87.6 | 69 | 86.2 | 99.6 | 30.1 | 78.1 | 118 | 226 | 52 | 128 | 131 | 141 | 223 | 92.8 | 63.5 | 50.4 | 53.8 | 27.9 |
| C=CCn1c(=O)c2cnc(Nc3ccc(N4CCN(C)CC4)cc3)nc2n1-c1cccc(C(C)(C)O)n1 + Cn1cncc1[C@@](N)(c1ccc(Cl)cc1)c1ccc2c(c1)c(-c1cccc(Cl)c1)cc(=O)n2C [tipifarnib] (first compound 0.02 µM, partner dose 0.01 µM) | 82 | 62.5 | 68.6 | 137 | 137 | 152 | 62.8 | 73.5 | 92.9 | 95.8 | 241 | 119 | 61.3 | 211 | 222 | 142 | 151 | 293 | 262 |
| COCC[n+]1c2c(n(Cc3cnccn3)c1C)C(=O)c1ccccc1C2=O + O=C(CCCCCCC(=O)Nc1ccccc1)NO [vorinostat] (first compound 0.0004 µM, partner dose 0.08 µM) | 111 | 45.6 | 158 | 79.3 | 46.2 | 119 | 49.1 | 228 | 137 | 291 | 29.2 | 78.1 | 111 | 45.9 | 179 | 97.9 | 64.3 | 80.9 | 78 |
| OCCn1cc(-c2cnc3nnn(Cc4ccc5ncccc5c4)c3n2)cn1 + C[C@@H]1CCN(C(=O)CC#N)C[C@@H]1N(C)c1ncnc2[nH]ccc12 [CP690550] (first compound 1 µM, partner dose 1 µM) | 140 | 63.1 | 73.9 | 101 | 44.1 | 89.3 | 22.5 | 16 | 188 | 102 | 121 | 35.9 | 85.5 | 87.8 | 168 | 58.3 | 113 | 134 | 170 |
| CO[C@@H]1[C@H](N(C)C(=O)c2ccccc2)C[C@H]2O[C@]1(C)n1c3ccccc3c3c4c(c5c6ccccc6n2c5c31)C(=O)NC4 [Midostaurin] + CN(C)S(=O)(=O)c1ccc2c(c1)/C(=C/c1cc3c([nH]1)CCCC3)C(=O)N2 [SU6656] (first compound 0.08 µM, partner dose 0.4 µM) | 128 | 125 | 72.1 | 99.1 | 99.8 | 101 | 50.3 | 38.3 | 129 | 53 | 378 | 67.6 | 182 | 69.5 | 71.1 | 82.8 | 80.6 | 574 | 224 |
| COc1cc(Nc2ncc(F)c(Nc3ccc4c(n3)NC(=O)C(C)(C)O4)n2)cc(OC)c1OC [Tamatinib] + CN(C)S(=O)(=O)c1ccc2c(c1)/C(=C/c1cc3c([nH]1)CCCC3)C(=O)N2 [SU6656] (first compound 0.4 µM, partner dose 0.4 µM) | 139 | 263 | 61.7 | 76.1 | 103 | 142 | 51.3 | 44 | 46.1 | 222 | 65.4 | 124 | 96.3 | 104 | 47.4 | 203 | 137 | 80.2 | 479 |

A section of the results above:

| SMILES | cleaved PARP positive nuclei fraction (COLO792) [%] | cleaved PARP positive nuclei fraction (COLO800) [%] | cleaved PARP positive nuclei fraction (COLO829) [%] | cleaved PARP positive nuclei fraction (G361) [%] | cleaved PARP positive nuclei fraction (IPC-298) [%] | cleaved PARP positive nuclei fraction (IST-MEL1) [%] | cleaved PARP positive nuclei fraction (LB2518-MEL) [%] | cleaved PARP positive nuclei fraction (LOXIMVI) [%] | cleaved PARP positive nuclei fraction (MEL-HO) [%] | cleaved PARP positive nuclei fraction (MZ2-MEL) [%] | cleaved PARP positive nuclei fraction (MeWo) [%] | cleaved PARP positive nuclei fraction (RPMI7951) [%] | cleaved PARP positive nuclei fraction (RVH-421) [%] | cleaved PARP positive nuclei fraction (SkMel28) [%] | cleaved PARP positive nuclei fraction (SkMel2) [%] | cleaved PARP positive nuclei fraction (SkMel30) [%] | cleaved PARP positive nuclei fraction (SkMel5) [%] | cleaved PARP positive nuclei fraction (UACC257) [%] | cleaved PARP positive nuclei fraction (UACC62) [%] |
| --- | --- | --- | --- | --- | --- | --- | --- | --- | --- | --- | --- | --- | --- | --- | --- | --- | --- | --- | --- |
| C=CCn1c(=O)c2cnc(Nc3ccc(N4CCN(C)CC4)cc3)nc2n1-c1cccc(C(C)(C)O)n1 + Cn1cncc1[C@@](N)(c1ccc(Cl)cc1)c1ccc2c(c1)c(-c1cccc(Cl)c1)cc(=O)n2C [tipifarnib] (first compound 0.02 µM, partner dose 0.01 µM) | 82 | 62.5 | 68.6 | 137 | 137 | 152 | 62.8 | 73.5 | 92.9 | 95.8 | 241 | 119 | 61.3 | 211 | 222 | 142 | 151 | 293 | 262 |
| COCC[n+]1c2c(n(Cc3cnccn3)c1C)C(=O)c1ccccc1C2=O + O=C(CCCCCCC(=O)Nc1ccccc1)NO [vorinostat] (first compound 0.0004 µM, partner dose 0.08 µM) | 111 | 45.6 | 158 | 79.3 | 46.2 | 119 | 49.1 | 228 | 137 | 291 | 29.2 | 78.1 | 111 | 45.9 | 179 | 97.9 | 64.3 | 80.9 | 78 |
